Source: PMC9381478, “A context-dependent and disordered ubiquitin-binding motif” (Cellular and Molecular Life Sciences: CMLS, 2022)
No constants are given. Whether binding was seen depends on the method and setting. Some entries that bind do so weakly or less than the wild type.

Target: T1, Pep42 (membrane-bound)
T1 sequence (peptide, C-terminal amino acid attached through a β-alanine to a cellulose membrane): DDTLWWENNWWDDED
Assay: peptide or protein array; 15-mer peptides covalently attached by the C-terminus to a cellulose membrane (PepSpots, two membranes, mean); 0.4 µM Cy5-labeled ubiquitin or His6-SUMO in TBS-T with 5% skim milk, 1 h, RT; fluorescence at 650 nm; both purified

- binding: binds
Substance: Cy5-labeled ubiquitin (from UniProt P0CG72 1-76)
